# Some of the results follow.
# Columns and labels:
# Assay in all cases: glycan array binding signal (z-score within array); higher = stronger binding
# Details in all cases: glycan notation: IUPAC condensed, linker removed
# Fuc(a1-2)Gal = molecular target: Fuc(a1-2)Gal
# Procedure, shortened: (§1)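 The binding signal is a Z-score computed within each array and averaged over linkers. Arrays of the same protein sequence at different concentrations or buffers were also averaged together. Data originate from 3228 arrays in the Consortium for Functional Glycomics database, kept only where the protein sequence was available.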
# Fuc(a1-2)Gal(b1-3)GalNAc = molecular target: Fuc(a1-2)Gal(b1-3)GalNAc
# Procedure, shortened: as §1
# [1] = molecular target: Fuc(a1-2)Gal(b1-3)GalNAc(a1-3)[Fuc(a1-2)]Gal(b1-4)Glc
# Procedure, shortened: as §1
# [2] = molecular target: Fuc(a1-2)Gal(b1-3)GalNAc(a1-3)[Fuc(a1-2)]Gal(b1-4)GlcNAc
# Procedure, shortened: as §1
# [3] = molecular target: Fuc(a1-2)Gal(b1-3)GalNAc(b1-3)Gal
# Procedure, shortened: as §1
# [4] = molecular target: Fuc(a1-2)Gal(b1-3)GalNAc(b1-3)Gal(a1-4)Gal(b1-4)Glc
# Procedure, shortened: as §1
# [5] = molecular target: Fuc(a1-2)Gal(b1-3)GalNAc(b1-4)[Neu5Ac(a2-3)]Gal(b1-4)Glc
# Procedure, shortened: as §1
# Fuc(a1-2)Gal(b1-3)GlcNAc = molecular target: Fuc(a1-2)Gal(b1-3)GlcNAc
# Procedure, shortened: as §1
# [6] = molecular target: Fuc(a1-2)Gal(b1-3)GlcNAc(b1-2)Man(a1-3)[Fuc(a1-2)Gal(b1-3)GlcNAc(b1-2)Man(a1-6)]Man(b1-4)GlcNAc(b1-4)GlcNAc
# Procedure, shortened: as §1
# [7] = molecular target: Fuc(a1-2)Gal(b1-3)GlcNAc(b1-2)Man(a1-3)[Fuc(a1-2)Gal(b1-3)GlcNAc(b1-2)Man(a1-6)]Man(b1-4)GlcNAc(b1-4)[Fuc(a1-6)]GlcNAc
# Procedure, shortened: as §1
# [8] = molecular target: Fuc(a1-2)Gal(b1-3)GlcNAc(b1-3)Gal(b1-4)Glc
# Procedure, shortened: as §1
# [9] = molecular target: Fuc(a1-2)Gal(b1-3)GlcNAc(b1-3)GalNAc
# Procedure, shortened: as §1
# [10] = molecular target: Fuc(a1-2)Gal(b1-3)GlcNAc(b1-3)[Fuc(a1-2)Gal(b1-3)GlcNAc(b1-6)]GalNAc
# Procedure, shortened: as §1
# [11] = molecular target: Fuc(a1-2)Gal(b1-3)GlcNAc(b1-3)[Gal(b1-4)GlcNAc(b1-6)]Gal(b1-4)Glc
# Procedure, shortened: as §1
# [12] = molecular target: Fuc(a1-2)Gal(b1-3)GlcNAc(b1-3)[Neu5Ac(a2-6)Gal(b1-4)GlcNAc(b1-6)]Gal(b1-4)Glc
# Procedure, shortened: as §1
# [13] = molecular target: Fuc(a1-2)Gal(b1-3)GlcNAc6S
# Procedure, shortened: as §1
# [14] = molecular target: Fuc(a1-2)Gal(b1-3)[Fuc(a1-4)]GlcNAc
# Procedure, shortened: as §1
# [15] = molecular target: Fuc(a1-2)Gal(b1-3)[Fuc(a1-4)]GlcNAc(b1-2)Man(a1-3)[Fuc(a1-2)Gal(b1-3)[Fuc(a1-4)]GlcNAc(b1-2)Man(a1-3)]Man(b1-4)GlcNAc(b1-4)GlcNAc
# Procedure, shortened: as §1
# [16] = molecular target: Fuc(a1-2)Gal(b1-3)[Fuc(a1-4)]GlcNAc(b1-2)Man(a1-3)[Fuc(a1-2)Gal(b1-3)[Fuc(a1-4)]GlcNAc(b1-2)Man(a1-6)]Man(b1-4)GlcNAc(b1-4)[Fuc(a1-6)]GlcNAc(b1-4)[Fuc(a1-6)]GlcNAc
# Procedure, shortened: as §1
# [17] = molecular target: Fuc(a1-2)Gal(b1-3)[Fuc(a1-4)]GlcNAc(b1-3)[Fuc(a1-3)[Gal(b1-4)]GlcNAc(b1-6)]Gal(b1-4)Glc
# Procedure, shortened: as §1
# [18] = molecular target: Fuc(a1-2)Gal(b1-3)[Fuc(a1-4)]GlcNAc(b1-3)[Gal(b1-4)GlcNAc(b1-6)]Gal(b1-4)Glc
# Procedure, shortened: as §1
# Fuc(a1-2)Gal(b1-4)Glc = molecular target: Fuc(a1-2)Gal(b1-4)Glc
# Procedure, shortened: as §1
# Fuc(a1-2)Gal(b1-4)Glc6S = molecular target: Fuc(a1-2)Gal(b1-4)Glc6S
# Procedure, shortened: as §1
# Fuc(a1-2)Gal(b1-4)GlcNAc = molecular target: Fuc(a1-2)Gal(b1-4)GlcNAc
# Procedure, shortened: as §1
# [19] = molecular target: Fuc(a1-2)Gal(b1-4)GlcNAc(b1-2)Man
# Procedure, shortened: as §1
# [20] = molecular target: Fuc(a1-2)Gal(b1-4)GlcNAc(b1-2)Man(a1-3)[Fuc(a1-2)Gal(b1-4)GlcNAc(b1-2)Man(a1-6)]Man(b1-4)GlcNAc(b1-4)GlcNAc
# Procedure, shortened: as §1
# [21] = molecular target: Fuc(a1-2)Gal(b1-4)GlcNAc(b1-2)Man(a1-3)[Fuc(a1-2)Gal(b1-4)GlcNAc(b1-2)Man(a1-6)]Man(b1-4)GlcNAc(b1-4)[Fuc(a1-6)]GlcNAc
# Procedure, shortened: as §1
# [22] = molecular target: Fuc(a1-2)Gal(b1-4)GlcNAc(b1-2)[Fuc(a1-2)Gal(b1-4)GlcNAc(b1-4)]Man(a1-3)[Fuc(a1-2)Gal(b1-4)GlcNAc(b1-2)Man(a1-6)]Man(b1-4)GlcNAc(b1-4)GlcNAc
# Procedure, shortened: as §1
# [23] = molecular target: Fuc(a1-2)Gal(b1-4)GlcNAc(b1-3)Gal(b1-4)GlcNAc
# Procedure, shortened: as §1
# [24] = molecular target: Fuc(a1-2)Gal(b1-4)GlcNAc(b1-3)Gal(b1-4)GlcNAc(b1-2)Man(a1-3)[Fuc(a1-2)Gal(b1-4)GlcNAc(b1-3)Gal(b1-4)GlcNAc(b1-2)Man(a1-6)]Man(b1-4)GlcNAc(b1-4)GlcNAc
# Procedure, shortened: as §1
# [25] = molecular target: Fuc(a1-2)Gal(b1-4)GlcNAc(b1-3)Gal(b1-4)GlcNAc(b1-3)Gal(b1-4)GlcNAc
# Procedure, shortened: as §1
# [26] = molecular target: Fuc(a1-2)Gal(b1-4)GlcNAc(b1-3)GalNAc
# Procedure, shortened: as §1
# [27] = molecular target: Fuc(a1-2)Gal(b1-4)GlcNAc(b1-3)[Fuc(a1-2)Gal(b1-4)GlcNAc(b1-6)]GalNAc
# Procedure, shortened: as §1
# [28] = molecular target: Fuc(a1-2)Gal(b1-4)GlcNAc(b1-3)[Fuc(a1-3)[Gal(b1-4)]GlcNAc(b1-6)]Gal(b1-4)Glc
# Procedure, shortened: as §1
# [29] = molecular target: Fuc(a1-2)Gal(b1-4)GlcNAc(b1-6)GalNAc
# Procedure, shortened: as §1
# [30] = molecular target: Fuc(a1-2)Gal(b1-4)GlcNAc6S
# Procedure, shortened: as §1
# [31] = molecular target: Fuc(a1-2)Gal(b1-4)[Fuc(a1-3)]GlcNAc
# Procedure, shortened: as §1
# [32] = molecular target: Fuc(a1-2)Gal(b1-4)[Fuc(a1-3)]GlcNAc(b1-2)Man(a1-3)[Fuc(a1-2)Gal(b1-4)[Fuc(a1-3)]GlcNAc(b1-2)Man(a1-6)]Man(b1-4)GlcNAc(b1-4)[Fuc(a1-6)]GlcNAc
# Procedure, shortened: as §1
# [33] = molecular target: Fuc(a1-2)Gal(b1-4)[Fuc(a1-3)]GlcNAc(b1-2)[Fuc(a1-2)Gal(b1-4)[Fuc(a1-3)]GlcNAc(b1-4)]Man(a1-3)[Fuc(a1-2)Gal(b1-4)[Fuc(a1-3)]GlcNAc(b1-2)Man(a1-6)]Man(b1-4)GlcNAc(b1-4)GlcNAc
# Procedure, shortened: as §1
# [34] = molecular target: Fuc(a1-2)Gal(b1-4)[Fuc(a1-3)]GlcNAc(b1-3)Gal(b1-4)[Fuc(a1-3)]GlcNAc
# Procedure, shortened: as §1
# [35] = molecular target: Fuc(a1-2)Gal(b1-4)[Fuc(a1-3)]GlcNAc(b1-3)Gal(b1-4)[Fuc(a1-3)]GlcNAc(b1-3)Gal(b1-4)[Fuc(a1-3)]GlcNAc
# Procedure, shortened: as §1
# [36] = molecular target: Fuc(a1-2)Gal(b1-4)[Fuc(a1-3)]GlcNAc(b1-3)GalNAc
# Procedure, shortened: as §1
# [37] = molecular target: Fuc(a1-2)Gal(b1-4)[Fuc(a1-3)]GlcNAc(b1-3)[Neu5Ac(a2-6)Gal(b1-4)GlcNAc(b1-6)]Gal(b1-4)Glc
# Procedure, shortened: as §1
# [38] = molecular target: Fuc(a1-2)Gal3S(b1-4)GlcNAc
# Procedure, shortened: as §1
# [39] = molecular target: Fuc(a1-2)Gal6S(b1-3)GlcNAc
# Procedure, shortened: as §1
binder,measurement,setting,value
"MXA PilAct-eGFP (Myxococcus xanthus), Q59589 (protein) MRVSRFNPRNRGFTLIELMIVVAIIGILAAIAIPNFIKFQARSKQSEAKTNLKALYTAQKSFFSEKDRYSDFANEIGFAPERGNRYGYRVSAAAGDCEVRNAADLPVPAAGVPCISNDSFRFGANSAIDDPTPVVARFVPQGAAGWNTTLGVQPTIADCPNCNFFAGARGNADNEATFDDWVIAGFEGSGQVGPCSEAGNVASGTPYNTRNDVACDGAAQ",glycan array binding signal (z-score),Fuc(a1-2)Gal,-0.674
same,glycan array binding signal (z-score),Fuc(a1-2)Gal(b1-3)GalNAc,0.064
same,glycan array binding signal (z-score),[1],0.469
same,glycan array binding signal (z-score),[2],0.443
same,glycan array binding signal (z-score),[3],-1.19
same,glycan array binding signal (z-score),[4],-0.446
same,glycan array binding signal (z-score),[5],0.117
same,glycan array binding signal (z-score),Fuc(a1-2)Gal(b1-3)GlcNAc,-0.785
same,glycan array binding signal (z-score),[6],-0.621
same,glycan array binding signal (z-score),[7],0.257
same,glycan array binding signal (z-score),[8],0.066
same,glycan array binding signal (z-score),[9],-0.348
same,glycan array binding signal (z-score),[10],-0.015
same,glycan array binding signal (z-score),[11],-0.272
same,glycan array binding signal (z-score),[12],-0.4
same,glycan array binding signal (z-score),[13],0.118
same,glycan array binding signal (z-score),[14],-0.852
same,glycan array binding signal (z-score),[15],0.331
same,glycan array binding signal (z-score),[16],-0.196
same,glycan array binding signal (z-score),[17],-0.294
same,glycan array binding signal (z-score),[18],-0.394
same,glycan array binding signal (z-score),Fuc(a1-2)Gal(b1-4)Glc,0.596
same,glycan array binding signal (z-score),Fuc(a1-2)Gal(b1-4)Glc6S,-0.702
same,glycan array binding signal (z-score),Fuc(a1-2)Gal(b1-4)GlcNAc,0.125
same,glycan array binding signal (z-score),[19],-1.78
same,glycan array binding signal (z-score),[20],2.18
same,glycan array binding signal (z-score),[21],-0.851
same,glycan array binding signal (z-score),[22],2.42
same,glycan array binding signal (z-score),[23],0.643
same,glycan array binding signal (z-score),[24],0.216
same,glycan array binding signal (z-score),[25],2.63
same,glycan array binding signal (z-score),[26],-0.527
same,glycan array binding signal (z-score),[27],-0.47
same,glycan array binding signal (z-score),[28],0.299
same,glycan array binding signal (z-score),[29],-0.317
same,glycan array binding signal (z-score),[30],-0.023
same,glycan array binding signal (z-score),[31],0.23
same,glycan array binding signal (z-score),[32],-0.459
same,glycan array binding signal (z-score),[33],0.084
same,glycan array binding signal (z-score),[34],0.603
same,glycan array binding signal (z-score),[35],-0.292
same,glycan array binding signal (z-score),[36],-0.56
same,glycan array binding signal (z-score),[37],0.678
same,glycan array binding signal (z-score),[38],-0.55
same,glycan array binding signal (z-score),[39],0.631

# Part of the list above, with bars between the fields:
binder | measurement | setting | value
MXA PilAct-eGFP (Myxococcus xanthus), Q59589 (protein) MRVSRFNPRNRGFTLIELMIVVAIIGILAAIAIPNFIKFQARSKQSEAKTNLKALYTAQKSFFSEKDRYSDFANEIGFAPERGNRYGYRVSAAAGDCEVRNAADLPVPAAGVPCISNDSFRFGANSAIDDPTPVVARFVPQGAAGWNTTLGVQPTIADCPNCNFFAGARGNADNEATFDDWVIAGFEGSGQVGPCSEAGNVASGTPYNTRNDVACDGAAQ | glycan array binding signal (z-score) | [21] | -0.851
same | glycan array binding signal (z-score) | [22] | 2.42
same | glycan array binding signal (z-score) | [23] | 0.643
same | glycan array binding signal (z-score) | [24] | 0.216
same | glycan array binding signal (z-score) | [25] | 2.63
same | glycan array binding signal (z-score) | [26] | -0.527
same | glycan array binding signal (z-score) | [27] | -0.47
same | glycan array binding signal (z-score) | [28] | 0.299
same | glycan array binding signal (z-score) | [29] | -0.317

# From the supplement of paper PMC8728848
